# Several values for one entry are separate records, joined by “and”; a condition that tells them apart may be missing. Equal entries are not always repeated. The source gives many values for each of these; only a part stands here.
# Tested on: RPE1 cells
# Assay: Cell growth assay (IncuCyte confluence over 72 h)
# Format: cell-based
# Method: Cell growth assay: Cell confluence (phase) from RPE1 (hTERT RPE-1, ATCC CLR_4000) or U2OS (ATCC, HTB-96) cell lines were monitored over time with the IncuCyte S3 (Sartiorius, Germany) in 384-well plates in 50 ul DMEM media, supplemented with 10% Fetal Bovine Serum (FBS) 1% penicillin/Streptomycin and incubated 24 h before treatment. Experiment was performed as described in Cano-Franco et al.. 50 μl of media containing either 2× final concentration of indicated compounds in or control compounds (final conc.: 0.1% DMSO, 250 nM Torin1, 200 ng/mL Bafilomycin) were added and images were taken every two hours over 72 h. Cell confluence is represented as % of area covered by cells. Each data point represents the average ratio or confluence obtained from three individual wells of the plate.
smiles,measurement,setting,value
O=C1Nc2ccc(Br)cc2C1=Cc1cc(O)c(O)c(Br)c1 [compound 1],RPE1 cell growth,"100 nM, 0 h, listed as AN1",20 and 12 and 21
same,RPE1 cell growth,"100 nM, 2 h, listed as AN1",23 and 13 and 22
same,RPE1 cell growth,"100 nM, 4 h, listed as AN1",25 and 14 and 23
same,RPE1 cell growth,"100 nM, 6 h, listed as AN1",27 and 15 and 23
same,RPE1 cell growth,"100 nM, 8 h, listed as AN1",28 and 15 and 25
same,RPE1 cell growth,"100 nM, 20 h, listed as AN1",33
same,RPE1 cell growth,"100 nM, 22 h, listed as AN1",45 and 24 and 35
same,RPE1 cell growth,"100 nM, 26 h, listed as AN1",53 and 28 and 38
same,RPE1 cell growth,"100 nM, 28 h, listed as AN1",58 and 29 and 40
same,RPE1 cell growth,"100 nM, 30 h, listed as AN1",45 and 32 and 43
same,RPE1 cell growth,"100 nM, 32 h, listed as AN1",67 and 35 and 47
same,RPE1 cell growth,"100 nM, 34 h, listed as AN1",72 and 38 and 50
same,RPE1 cell growth,"100 nM, 36 h, listed as AN1",74 and 41 and 52
same,RPE1 cell growth,"100 nM, 38 h, listed as AN1",78 and 44 and 56
same,RPE1 cell growth,"100 nM, 40 h, listed as AN1",57 and 46 and 60
same,RPE1 cell growth,"100 nM, 44 h, listed as AN1",90 and 54 and 67
same,RPE1 cell growth,"100 nM, 46 h, listed as AN1",93 and 57 and 70
same,RPE1 cell growth,"100 nM, 48 h, listed as AN1",95 and 61 and 75
same,RPE1 cell growth,"100 nM, 50 h, listed as AN1",97 and 66 and 79
same,RPE1 cell growth,"100 nM, 52 h, listed as AN1",66 and 72 and 83
same,RPE1 cell growth,"100 nM, 54 h, listed as AN1",98 and 78 and 87
same,RPE1 cell growth,"100 nM, 58 h, listed as AN1",99 and 85 and 93
same,RPE1 cell growth,"100 nM, 60 h, listed as AN1",100 and 91 and 95
same,RPE1 cell growth,"100 nM, 62 h, listed as AN1",100 and 94 and 97
same,RPE1 cell growth,"100 nM, 64 h, listed as AN1",100 and 96 and 98
same,RPE1 cell growth,"100 nM, 66 h, listed as AN1",100 and 98 and 99
same,RPE1 cell growth,"100 nM, 68 h, listed as AN1",100 and 99
same,RPE1 cell growth,"100 nM, 70 h, listed as AN1",100 and 99
same,RPE1 cell growth,"100 nM, 72 h",100
same,RPE1 cell growth,"100 nM, time 20 h, listed as AN1",49 and 26 and 29
same,RPE1 cell growth,"100 nM, time 22 h, listed as AN1",52 and 28 and 30
same,RPE1 cell growth,"100 nM, time 24 h, listed as AN1",58 and 31 and 33
same,RPE1 cell growth,"100 nM, time 26 h, listed as AN1",62 and 32 and 34
same,RPE1 cell growth,"100 nM, time 28 h, listed as AN1",65 and 36 and 37
same,RPE1 cell growth,"100 nM, time 30 h, listed as AN1",70 and 39
same,RPE1 cell growth,"100 nM, time 32 h, listed as AN1",74 and 43 and 44
same,RPE1 cell growth,"100 nM, time 34 h, listed as AN1",78 and 45 and 49
same,RPE1 cell growth,"100 nM, time 36 h, listed as AN1",82 and 48 and 50
same,RPE1 cell growth,"100 nM, time 38 h, listed as AN1",84 and 52
same,RPE1 cell growth,"100 nM, time 40 h, listed as AN1",88 and 54 and 58
same,RPE1 cell growth,"100 nM, time 42 h, listed as AN1",89 and 58 and 61
same,RPE1 cell growth,"100 nM, time 44 h, listed as AN1",93 and 63 and 66
same,RPE1 cell growth,"100 nM, time 46 h, listed as AN1",93 and 67 and 70
same,RPE1 cell growth,"100 nM, time 48 h, listed as AN1",95 and 71 and 74
same,RPE1 cell growth,"100 nM, time 50 h, listed as AN1",96 and 77 and 76
same,RPE1 cell growth,"100 nM, time 52 h, listed as AN1",97 and 81 and 82
same,RPE1 cell growth,"100 nM, time 54 h, listed as AN1",98 and 85 and 87
same,RPE1 cell growth,"100 nM, time 56 h, listed as AN1",99 and 88
same,RPE1 cell growth,"100 nM, time 58 h, listed as AN1",99 and 92 and 94
same,RPE1 cell growth,"100 nM, time 60 h, listed as AN1",99 and 95
same,RPE1 cell growth,"100 nM, time 62 h, listed as AN1",100 and 96 and 97
same,RPE1 cell growth,"100 nM, time 64 h, listed as AN1",100 and 98
same,RPE1 cell growth,"100 nM, time 66 h, listed as AN1",100 and 99
same,RPE1 cell growth,"100 nM, time 68 h, listed as AN1",100 and 99
same,RPE1 cell growth,"100 nM, time 70 h",100
same,RPE1 cell growth,"100 nM, time 72 h",100
same,RPE1 cell growth,"500 nM, 0 h, listed as AN1",25 and 19 and 18
same,RPE1 cell growth,"500 nM, 2 h, listed as AN1",31 and 18 and 20
same,RPE1 cell growth,"500 nM, 4 h, listed as AN1",33 and 20 and 22
same,RPE1 cell growth,"500 nM, 6 h, listed as AN1",35 and 20 and 22
same,RPE1 cell growth,"500 nM, 8 h, listed as AN1",38 and 21 and 23
same,RPE1 cell growth,"500 nM, 20 h, listed as AN1",50 and 31 and 34
same,RPE1 cell growth,"500 nM, 22 h, listed as AN1",55 and 34 and 36
same,RPE1 cell growth,"500 nM, 24 h, listed as AN1",60 and 36 and 38
same,RPE1 cell growth,"500 nM, 26 h, listed as AN1",62 and 39 and 42
same,RPE1 cell growth,"500 nM, 28 h, listed as AN1",67 and 41 and 43
same,RPE1 cell growth,"500 nM, 32 h, listed as AN1",76 and 49 and 50
same,RPE1 cell growth,"500 nM, 34 h, listed as AN1",79 and 52 and 53
same,RPE1 cell growth,"500 nM, 36 h, listed as AN1",82 and 55 and 57
same,RPE1 cell growth,"500 nM, 38 h, listed as AN1",85 and 60
same,RPE1 cell growth,"500 nM, 42 h, listed as AN1",91 and 67 and 63
same,RPE1 cell growth,"500 nM, 44 h, listed as AN1",94 and 73 and 74
same,RPE1 cell growth,"500 nM, 46 h, listed as AN1",96 and 78
same,RPE1 cell growth,"500 nM, 48 h, listed as AN1",97 and 81 and 83
same,RPE1 cell growth,"500 nM, 50 h, listed as AN1",98 and 86
same,RPE1 cell growth,"500 nM, 54 h, listed as AN1",99 and 94 and 92
same,RPE1 cell growth,"500 nM, 56 h, listed as AN1",100 and 94 and 91
same,RPE1 cell growth,"500 nM, 58 h, listed as AN1",100 and 96 and 97
same,RPE1 cell growth,"500 nM, 60 h, listed as AN1",100 and 98
same,RPE1 cell growth,"500 nM, 62 h, listed as AN1",100 and 99
same,RPE1 cell growth,"500 nM, 64 h, listed as AN1",100 and 99
same,RPE1 cell growth,"500 nM, 66 h",100
same,RPE1 cell growth,"500 nM, 68 h",100
same,RPE1 cell growth,"500 nM, 70 h",100
same,RPE1 cell growth,"500 nM, 72 h",100
same,RPE1 cell growth,"500 nM, time 20 h, listed as AN1",53 and 28 and 35

# — PMC11589570, “Critical assessment of LC3/GABARAP ligands used for degrader development and ligandability of LC3/GABARAP binding pockets” (Nature Communications, 2024)
